Data as given in PubChem BioAssay AID1259425 (University of Nebraska Medical Center, 2018).
Here is one part, drawn at random, of about 14,000 reagents tested. The numbers tell different reagents against one gene apart. Not all columns of the deposit are shown. The record does not give: the time to read-out.

Screen: 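Find knockdowns that reproduce the gene expression pattern seen when KSR1 is lost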 (primary screen)
System: HCT116 human colon cancer cells
Reagents: siRNA pool against human genes, 50 nM siRNA
Read-out: 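mRNA of six signature genes measured together by branched-DNA assay after 50 nM siRNA pool, blank removed, divided by geometric mean of two housekeeping genes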
Direction: BNIP3L mRNA: higher = more BNIP3L transcript after knockdown

For ZNF770 (GeneID 54989), what was measured?
BNIP3L mRNA, set 1: 0.198

What did the screen give for CRBN (GeneID 51185)?
BNIP3L mRNA, set 1: 0.153

With POMC (GeneID 5443), what does the deposit list?
BNIP3L mRNA, set 1: 0.12

With GP6 (GeneID 51206), what was measured?
BNIP3L mRNA, set 1: 0.116

With TRPA1 (GeneID 8989), what was measured?
BNIP3L mRNA, set 1: 0.0498

For BCL2L10 (GeneID 10017), how do the results read?
BNIP3L mRNA, set 1: 0.102

For KLK1 (GeneID 3816), how do the results read?
BNIP3L mRNA, set 1: 0.0998

For UBE2H (GeneID 7328), what was measured?
BNIP3L mRNA, set 1: 0.0439

For DMD (GeneID 1756), what does the deposit list?
BNIP3L mRNA, set 1: 0.0718

With EP300 (GeneID 2033), what does the deposit list?
BNIP3L mRNA, set 1: 0.0464

Which result is listed for CLINT1 (GeneID 9685)?
BNIP3L mRNA, set 1: 0.138

Which result is listed for CCN3 (GeneID 4856)?
BNIP3L mRNA, set 1: 0.0898

Which result is listed for SRPRA (GeneID 6734)?
BNIP3L mRNA, set 1: 0.0793

For PHF11 (GeneID 51131), how do the results read?
BNIP3L mRNA, set 1: 0.107

With SPMAP2 (GeneID 51298), how do the results read?
BNIP3L mRNA, set 1: 0.0953

What did the screen give for FAHD2B (GeneID 151313)?
BNIP3L mRNA, set 1: 0.0583

How did the screen score CAMKK1 (GeneID 84254)?
BNIP3L mRNA, set 1: 0.208

What is on record for DNAJB2 (GeneID 3300)?
BNIP3L mRNA, set 1: 0.0752

For WDR5 (GeneID 11091), what was measured?
BNIP3L mRNA, set 1: 0.307

For CSF2RA (GeneID 1438), what does the deposit list?
BNIP3L mRNA, set 1: 0.0732

With ACTA1 (GeneID 58), what was measured?
BNIP3L mRNA, set 1: 0.0973

With METTL3 (GeneID 56339), what does the deposit list?
BNIP3L mRNA, set 1: 0.15

For TOP2B (GeneID 7155), how do the results read?
BNIP3L mRNA, set 1: 0.105

For MYC (GeneID 4609), what was measured?
BNIP3L mRNA, set 1: 0.123

For CCL17 (GeneID 6361), how do the results read?
BNIP3L mRNA, set 1: 0.501

Which result is listed for ALG13 (GeneID 79868) #1?
BNIP3L mRNA, set 1: 0.15

What is on record for ALG13 (GeneID 79868) #2?
BNIP3L mRNA, set 1: 0.14

Which result is listed for SEC22C (GeneID 9117)?
BNIP3L mRNA, set 1: 0.159

What is on record for CENPN (GeneID 55839)?
BNIP3L mRNA, set 1: 0.193

What is on record for PSMD4 (GeneID 5710)?
BNIP3L mRNA, set 1: 0.107

With BRCC3 (GeneID 79184), how do the results read?
BNIP3L mRNA, set 1: 0.187

What is on record for TIA1 (GeneID 7072)?
BNIP3L mRNA, set 1: 0.0999

With SLC12A7 (GeneID 10723), what does the deposit list?
BNIP3L mRNA, set 1: 0.205

What is on record for WDR35 (GeneID 57539)?
BNIP3L mRNA, set 1: 0.109

What is on record for CHST9 (GeneID 83539)?
BNIP3L mRNA, set 1: 0.174

What is on record for TEAD4 (GeneID 7004)?
BNIP3L mRNA, set 1: 0.0986
